## Results of single-concentration screens

The values are deposited in ChEMBL (CHEMBL3988442, “University of Dundee, Small-Polar-MMV Screening Library” (2021)).

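Phenotypic screen: M. tuberculosis growth, cholesterol and DPPC medium, 4 days; the read-out is not stated. Tested at 50 µM. The record gives no direction; compounds that gave an IC50 in retests scored well above the rest, so higher reads as more growth inhibition. About 69,000 compounds were tested under these conditions; 0.54% (about 370) showed 50% or more at least once.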

Results are given as percent effect.
How 0% and 100% were set is not recorded. Most values in the screen are low, and negative values occur.
This is an unselected part of the compounds tested.
Two or more numbers in one place are separate tests of the same structure; such repeats can differ widely.

With N#Cc1ccc(CN2CCCC3(Cc4ccccc4CNC3=O)C2)cc1 (configuration not stated) the screen gave -1.181%. With Cc1cc(N(C)C)nc(N2CCCC2c2cccnc2)n1 (configuration not stated) the screen gave 16.16%. For Cc1cccc(C)c1OCCCN1CCN(CC2CCCO2)CC1 (configuration not stated) the result was -10.28% & -9.001%. Cn1cc(-c2nnn3c2COC(CNCc2nccs2)C3)cn1 (configuration not stated) gave -14.41%.

For CSc1nc(C2CC2)nc(C)c1C(=O)NCc1ncc(C)o1 the result was 1.143%. CC(=O)N1CCn2c(C(=O)N(C)C)cnc2C1 gave 17.13%. CC(Cn1ccnc1)NC(=O)NCCc1ccccn1 (configuration not stated) read -15.4%. With COc1c(C)cnc(CN2CCCC(Cn3nc(C)nc3C)C2)c1C (configuration not stated) the screen gave -9.974%.

With COCc1nc2cc(NCc3ccc(C)o3)ccc2o1 the screen gave 9.304% & 16.05%. CCN1CC2(CCNCC2)COc2ccccc2S1(=O)=O.O=C(O)C(F)(F)F gave -9.643%. With CCCn1cc(CN2CCOCC2c2[nH]ncc2C)cn1 (configuration not stated) the screen gave -12.06% & -2.785%. CCC(=O)N(C)Cc1cccc(OC(C)C)c1 read 2.145%.

CCS(=O)(=O)N1CCOC(CCCc2ccccc2)C1 (configuration not stated) gave 23.51%. COc1ccc(C(CC(=O)O)NC(=O)c2cc(C)on2)cc1 (configuration not stated) read -0.07482%. For Cc1ccc(OCCCNC(=O)Cc2nc3ncccn3n2)cc1 the result was -3.411%. Result for Cn1cc(C2=NOC(C(=O)NC3(c4ccccc4)CCCC3)C2)cn1 (configuration not stated) was -0.3615% & -9.429%.

For FC1(F)CCN(Cc2ccncc2)CC12CCN(c1cccnc1)C2.O=C(O)C(F)(F)F.O=C(O)C(F)(F)F.O=C(O)C(F)(F)F (configuration not stated) the result was 11%. Result for Cc1ccc(C(O)CNC(=O)NCc2csc(C)n2)cc1 (configuration not stated) was -0.8284%. O=C(CNc1cccc(S(=O)(=O)C(F)F)c1)NCc1ccco1 gave -7.526%. For Nc1no[n+]([O-])c1C(=O)NCc1ccccn1 the result was -11.07%.

CCS(=O)(=O)N1CCC(c2nc3ccc(-c4ccccc4)cn3n2)CC1 gave -10.9%. Result for COc1ccccc1C(C)Nc1ncc(C(N)=O)cc1Cl (configuration not stated) was -12.87%. Result for [H][C@@]12CCC(=O)N(CCc3c[nH]cn3)[C@]1([H])CCN(Cc1c(C)n[nH]c1C)C2 was -0.3868% & 0.2781%. For [H][C@@]12CN(C(=O)c3cnccn3)C[C@]1([H])CN(c1cc(OC)ncn1)C2 the result was 0.1424%.

Result for CCc1nc(C)c(-c2nccn2CC2CCCCO2)[nH]1 (configuration not stated) was -11.95%. With CCC(CNS(C)(=O)=O)Oc1ccccc1F (configuration not stated) the screen gave -6.32%. Result for CCc1nc(C2CCCN(c3ncccn3)C2)no1 (configuration not stated) was -22.44%. Result for Cc1nc(CNC(=O)Nc2cc(C(F)(F)F)c[nH]c2=O)cs1 was -7.822%.

For O=C1NC(C(=O)NCc2cccnc2Oc2ccc(F)c(F)c2)CO1 (configuration not stated) the result was -1.703%. O=C1CCC2(CCN(Cc3cscn3)CC2)CN1[C@H]1CC[C@H](O)CC1 gave -18.42%. For CS(=O)(=O)c1ccc2c(c1)nc1n2[C@@H](CNCc2cccnc2)COC1 the result was 3.005%. Cc1cc(C(=O)NS(C)(=O)=O)ccc1I read 3.345%.

Cc1[nH]c2ccc(C#N)cc2c1CCNc1ncnc2c1CCNCC2 read 15.58%. Cc1cc(-c2nc(-c3cccc(CN4CCOCC4)c3)no2)no1 gave -1.791%.

Once more, the final 4:

| SMILES | Percent Effect |
|---|---|
| `CS(=O)(=O)c1ccc2c(c1)nc1n2[C@@H](CNCc2cccnc2)COC1` | 3.005 |
| `Cc1cc(C(=O)NS(C)(=O)=O)ccc1I` | 3.345 |
| `Cc1[nH]c2ccc(C#N)cc2c1CCNc1ncnc2c1CCNCC2` | 15.58 |
| `Cc1cc(-c2nc(-c3cccc(CN4CCOCC4)c3)no2)no1` | -1.791 |